Laboratory results published in US20160050929A1, “METHODS OF CONTROLLING NEONICOTINOID RESISTANT PESTS” (SYNGENTA PARTICIPATIONS AG, priority 2013, published 2016).
Some results were stated once for a whole list of compounds, not compound by compound.

Legend:
[1] = system: Q-biotype strain of Bemisia tabaci (Neonicotinoid resistant); experiment: Control of neonicotinoid and pyrethroid resistant tobacco whitefly (bioassay methods A and B); type: in vivo
[2] = system: FRC-P strain of Myzus persicae (Neonicotinoid resistant); experiment: Control of neonicotinoid resistant green peach aphid (bioassay methods A and B); type: in vivo

## C#CCN1[C@@H]2C=C[C@H]1C[C@](C#N)(c1cncc(C#CC)c1)C2 [Compound 2.118]
[1]; 200 ppm
  control of the Q-biotype (Neonicotinoid resistant) strain of Bemisia tabaci: at least 80%
[1]; Q-biotype resistant vs susceptible Bemisia tabaci strain, ratio of concentrations giving same mortality (i.e. 80%)
  resistance factor: ≤ 20
[2]; 200 ppm
  control of the FRC-P (Neonicotinoid resistant) strain of Myzus persicae: at least 80%
[2]; FRC-P resistant vs susceptible Myzus persicae strain, ratio of concentrations giving same mortality (i.e. 80%)
  resistance factor (RF80): ≤ 20
